Test results: patent US20060194268A1, “Method for measuring spinorphin” (priority 2005, published 2006)
No end group written: not given here.

Assay: Measurement of spinorphin in the synovial fluid from RA and OA patients
Parameters: species or system human

**Q.** Which “amount of spinorphin in the synovial fluid” value (joints of OA patients (n=23)) does the source give for “LVVYPWT [Spinorphin, Leu-Val-Val-Tyr-Pro-Trp-Thr]” here?
**A.** 10.1 ± 7.1 ng/mL

**Q.** And the “amount of spinorphin in the synovial fluid” value (joints of RA patients (n=20))?
**A.** 4.2 ± 3.4 ng/mL
